Laboratory results published in US20130150375A1, “GEPIRONE-ER TREATMENT OF MAJOR DEPRESSION IN PATIENTS TAKING NON-STEROIDAL ANTI-INFLAMMATORY DRUGS (NSAIDs)” (Fabre-Kramer Pharmaceuticals.Inc., priority 2011, published 2013).
Structures can show the parent of a compound that is named as a salt. For at least one compound, name, drawing or mass did not settle the structure.

Experiments:
[1] = tested on: post-synaptic receptors in the hippocampus; conditions: cited from earlier work
[2] = tested on: depressed patients taking an NSAID; experiment: Individual patient cases from the study (Examples 1 and 2), HAMD-17; format: in vivo, human; conditions: Example 2: person taking ibuprofen
From the text: The following Examples represent a sampling of the subjects studied:
A person came to a psychiatric clinic complaining of depression. Their symptoms included: depressed mood, insomnia, lack of energy, low sex drive, and mild suicidal thoughts. They also were being treated for cardiac complains and was taking a daily NSAID (aspirin) to improve blood flow. They refused to discontinue their aspirin because their cardiologist had prohibited them from doing so. Their initial HAMD-17 was 26. After 8 weeks of treatment with Gepirone-ER all of their depressive symptoms had been eliminated.
A person came into the same psychiatric clinic complaining of depression. Their symptoms included depressed mood, lethargy, guilt, and trouble waking up early in the morning. They were also being treated by their neurologist for chronic headaches with ibuprofen. They refused to discontinue the ibuprofen because the headaches interfered with their ability to work. Their initial HAMD-17 was 16. […] A further trial of a second SSRI (citalopram) also failed.

Compound	Agonism at post-synaptic receptors in the hippocampus [1]	Clinical outcome [2]
CC1(C)CC(=O)N(CCCCN2CCN(c3ncccn3)CC2)C(=O)C1 [gepirone, 4,4-dimethyl-1-[4-[-(2-pyrimidinyl)-1-piperazinyl]-butyl]-2,6-piperidinedione hydrochloride]	partial agonist	–
CN(C)CCCC1(c2ccc(F)cc2)OCc2cc(C#N)ccc21 (centres unmarked) [citalopram]	–	failed
